Assay results from publication PMC8120205.
These are yes or no findings as the source states them, for the method shown. In cells and extracts the contact can be indirect. These calls come from enrichment with a bait or labelling near it, and not all partners need be listed. Tags and fused reporters may be left off the sequences shown.

Amino acid sequences for entries named in this document (tags omitted).
UniProt Q9BQA1: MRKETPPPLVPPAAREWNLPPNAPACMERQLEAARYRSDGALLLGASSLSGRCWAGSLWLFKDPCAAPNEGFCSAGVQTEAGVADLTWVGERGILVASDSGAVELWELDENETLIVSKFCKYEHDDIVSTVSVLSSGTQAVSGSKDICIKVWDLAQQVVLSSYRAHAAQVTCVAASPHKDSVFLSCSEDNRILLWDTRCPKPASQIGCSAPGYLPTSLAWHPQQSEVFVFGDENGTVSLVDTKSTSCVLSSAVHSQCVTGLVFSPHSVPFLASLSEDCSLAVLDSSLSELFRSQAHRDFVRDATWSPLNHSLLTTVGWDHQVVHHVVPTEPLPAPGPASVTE
UniProt O14744: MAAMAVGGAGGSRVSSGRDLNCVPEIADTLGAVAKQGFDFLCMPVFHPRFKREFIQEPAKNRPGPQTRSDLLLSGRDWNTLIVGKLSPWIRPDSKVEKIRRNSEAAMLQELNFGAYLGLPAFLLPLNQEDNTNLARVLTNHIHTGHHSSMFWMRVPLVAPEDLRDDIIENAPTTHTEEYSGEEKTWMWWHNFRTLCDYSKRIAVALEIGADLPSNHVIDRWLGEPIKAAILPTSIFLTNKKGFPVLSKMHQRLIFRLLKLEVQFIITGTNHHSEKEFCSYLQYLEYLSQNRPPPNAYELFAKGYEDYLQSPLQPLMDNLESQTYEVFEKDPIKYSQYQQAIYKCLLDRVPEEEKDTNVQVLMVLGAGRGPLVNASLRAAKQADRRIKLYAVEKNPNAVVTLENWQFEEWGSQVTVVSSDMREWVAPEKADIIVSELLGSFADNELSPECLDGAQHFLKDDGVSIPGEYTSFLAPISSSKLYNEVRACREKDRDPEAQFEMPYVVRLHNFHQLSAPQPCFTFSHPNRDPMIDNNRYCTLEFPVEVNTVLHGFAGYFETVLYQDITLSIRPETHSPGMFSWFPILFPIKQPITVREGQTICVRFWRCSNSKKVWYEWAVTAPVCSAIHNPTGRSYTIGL

Target: T1, FLAG-tagged MYOCD (MYOCD 3×FLAG) (UniProt Q8IZQ8)
T1 sequence: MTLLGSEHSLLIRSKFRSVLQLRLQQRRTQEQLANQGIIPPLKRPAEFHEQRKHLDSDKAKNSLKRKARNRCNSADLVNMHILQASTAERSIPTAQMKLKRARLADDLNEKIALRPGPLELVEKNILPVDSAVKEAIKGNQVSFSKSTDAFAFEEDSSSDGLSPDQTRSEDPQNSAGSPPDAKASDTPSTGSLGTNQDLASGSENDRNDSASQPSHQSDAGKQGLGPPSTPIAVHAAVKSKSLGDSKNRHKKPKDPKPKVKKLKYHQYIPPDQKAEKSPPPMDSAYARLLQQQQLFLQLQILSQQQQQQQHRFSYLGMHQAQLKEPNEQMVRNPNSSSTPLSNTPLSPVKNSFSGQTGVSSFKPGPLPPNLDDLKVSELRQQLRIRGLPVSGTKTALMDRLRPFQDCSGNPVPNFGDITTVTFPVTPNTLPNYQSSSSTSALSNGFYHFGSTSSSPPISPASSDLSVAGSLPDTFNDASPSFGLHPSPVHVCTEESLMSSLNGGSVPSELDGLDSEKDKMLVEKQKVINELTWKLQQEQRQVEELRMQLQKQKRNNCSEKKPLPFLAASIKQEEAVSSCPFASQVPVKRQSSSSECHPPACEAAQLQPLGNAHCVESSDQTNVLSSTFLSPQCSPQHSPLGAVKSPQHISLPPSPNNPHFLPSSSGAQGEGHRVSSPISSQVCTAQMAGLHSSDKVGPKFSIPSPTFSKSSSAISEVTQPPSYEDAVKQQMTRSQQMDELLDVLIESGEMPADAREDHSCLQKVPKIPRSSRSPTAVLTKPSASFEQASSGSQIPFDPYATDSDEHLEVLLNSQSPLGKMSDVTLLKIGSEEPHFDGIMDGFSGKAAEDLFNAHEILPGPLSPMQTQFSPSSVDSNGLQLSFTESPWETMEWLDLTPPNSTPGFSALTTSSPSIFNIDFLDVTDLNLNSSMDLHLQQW
Assay: affinity purification with mass spectrometry; immunoprecipitation with antibody against Flag from 293T-MYOCD 3×FLAG cells (control: 293T-GFP 3×FLAG); SDS-PAGE, silver staining, in-gel digestion, LC-MS

binding	Substance
binds	MEP50 (endogenous, 293T) (from UniProt Q9BQA1 1-342)
binds	PRMT5 (endogenous, 293T) (from UniProt O14744 1-637)
